Data on five substances can be found in patent US20060034860A1.

Protein sequences, listed by entry. Tags and fused reporters are not part of them. Residues count along the entry.
UniProt Q99941, residues 2-703: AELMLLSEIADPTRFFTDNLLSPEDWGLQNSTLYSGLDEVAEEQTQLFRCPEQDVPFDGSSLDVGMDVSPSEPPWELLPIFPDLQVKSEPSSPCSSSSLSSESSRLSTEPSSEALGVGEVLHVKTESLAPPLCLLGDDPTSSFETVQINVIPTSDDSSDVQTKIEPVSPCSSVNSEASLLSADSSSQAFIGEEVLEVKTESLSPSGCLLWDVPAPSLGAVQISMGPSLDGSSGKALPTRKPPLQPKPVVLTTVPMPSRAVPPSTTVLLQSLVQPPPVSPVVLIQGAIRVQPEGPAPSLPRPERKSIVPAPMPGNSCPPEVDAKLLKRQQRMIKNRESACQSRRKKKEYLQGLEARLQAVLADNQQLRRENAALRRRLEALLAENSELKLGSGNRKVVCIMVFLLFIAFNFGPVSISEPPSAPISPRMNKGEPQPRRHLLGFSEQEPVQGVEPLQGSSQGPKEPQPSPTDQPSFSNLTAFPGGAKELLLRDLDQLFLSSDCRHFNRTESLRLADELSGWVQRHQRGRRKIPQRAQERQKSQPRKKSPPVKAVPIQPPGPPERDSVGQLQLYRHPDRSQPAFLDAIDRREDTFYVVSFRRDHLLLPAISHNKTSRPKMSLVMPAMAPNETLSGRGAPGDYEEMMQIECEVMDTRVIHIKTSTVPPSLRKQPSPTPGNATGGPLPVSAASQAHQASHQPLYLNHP
UniProt Q9Y4K1: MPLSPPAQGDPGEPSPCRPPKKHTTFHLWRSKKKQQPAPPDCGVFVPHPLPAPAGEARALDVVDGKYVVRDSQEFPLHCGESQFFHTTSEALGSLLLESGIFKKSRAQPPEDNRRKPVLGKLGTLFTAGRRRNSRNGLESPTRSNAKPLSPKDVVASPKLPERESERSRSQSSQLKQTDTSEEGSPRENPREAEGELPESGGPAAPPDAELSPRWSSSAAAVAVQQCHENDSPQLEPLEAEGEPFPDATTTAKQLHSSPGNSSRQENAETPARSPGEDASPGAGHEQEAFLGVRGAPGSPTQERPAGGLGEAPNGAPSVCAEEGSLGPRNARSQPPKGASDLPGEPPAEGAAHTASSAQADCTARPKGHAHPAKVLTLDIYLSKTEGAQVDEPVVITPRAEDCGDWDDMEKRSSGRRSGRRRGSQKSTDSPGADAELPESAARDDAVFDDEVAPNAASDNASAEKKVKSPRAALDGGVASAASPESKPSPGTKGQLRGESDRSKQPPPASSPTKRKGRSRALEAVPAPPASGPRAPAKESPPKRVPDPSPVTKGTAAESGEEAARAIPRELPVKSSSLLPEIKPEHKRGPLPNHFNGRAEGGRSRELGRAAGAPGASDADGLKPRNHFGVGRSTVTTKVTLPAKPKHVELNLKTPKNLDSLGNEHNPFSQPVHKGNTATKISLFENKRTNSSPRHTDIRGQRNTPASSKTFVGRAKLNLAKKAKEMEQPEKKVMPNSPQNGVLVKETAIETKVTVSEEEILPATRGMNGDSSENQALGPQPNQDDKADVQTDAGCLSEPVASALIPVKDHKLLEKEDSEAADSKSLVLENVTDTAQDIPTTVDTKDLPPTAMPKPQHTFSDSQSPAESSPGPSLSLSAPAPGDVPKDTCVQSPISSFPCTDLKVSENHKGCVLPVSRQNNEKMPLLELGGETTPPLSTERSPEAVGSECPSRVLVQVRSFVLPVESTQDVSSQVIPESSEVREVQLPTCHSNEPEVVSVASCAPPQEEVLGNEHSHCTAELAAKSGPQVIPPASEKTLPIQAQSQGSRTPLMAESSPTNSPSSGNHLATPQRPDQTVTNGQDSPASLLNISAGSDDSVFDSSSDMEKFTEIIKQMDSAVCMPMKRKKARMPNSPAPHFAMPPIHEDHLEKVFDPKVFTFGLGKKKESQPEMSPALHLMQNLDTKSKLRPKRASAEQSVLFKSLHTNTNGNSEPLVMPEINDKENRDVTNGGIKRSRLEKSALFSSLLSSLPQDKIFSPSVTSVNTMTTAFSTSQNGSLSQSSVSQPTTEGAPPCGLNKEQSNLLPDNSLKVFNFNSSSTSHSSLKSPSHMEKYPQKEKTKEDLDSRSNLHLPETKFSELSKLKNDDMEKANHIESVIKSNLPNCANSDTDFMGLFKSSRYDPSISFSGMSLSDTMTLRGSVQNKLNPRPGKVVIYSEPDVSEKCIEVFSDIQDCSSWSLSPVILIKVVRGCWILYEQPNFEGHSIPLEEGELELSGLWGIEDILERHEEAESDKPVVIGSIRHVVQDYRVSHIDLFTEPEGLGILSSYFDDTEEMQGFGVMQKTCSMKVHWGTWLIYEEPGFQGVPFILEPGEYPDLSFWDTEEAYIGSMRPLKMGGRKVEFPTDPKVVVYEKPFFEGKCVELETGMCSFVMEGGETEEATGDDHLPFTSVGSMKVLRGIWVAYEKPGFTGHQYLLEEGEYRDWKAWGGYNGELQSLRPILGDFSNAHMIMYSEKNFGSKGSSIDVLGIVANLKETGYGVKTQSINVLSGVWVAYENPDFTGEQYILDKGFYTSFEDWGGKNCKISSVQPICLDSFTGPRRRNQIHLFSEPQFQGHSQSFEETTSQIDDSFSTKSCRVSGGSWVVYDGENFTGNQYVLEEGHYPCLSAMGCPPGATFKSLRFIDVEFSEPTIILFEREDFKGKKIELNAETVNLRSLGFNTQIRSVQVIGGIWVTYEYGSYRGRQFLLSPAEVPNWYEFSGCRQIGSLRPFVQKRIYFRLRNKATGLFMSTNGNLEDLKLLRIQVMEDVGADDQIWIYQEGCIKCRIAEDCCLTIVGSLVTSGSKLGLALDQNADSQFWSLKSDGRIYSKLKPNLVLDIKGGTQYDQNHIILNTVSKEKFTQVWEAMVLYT
UniProt Q9Y5L0, residues 61-333: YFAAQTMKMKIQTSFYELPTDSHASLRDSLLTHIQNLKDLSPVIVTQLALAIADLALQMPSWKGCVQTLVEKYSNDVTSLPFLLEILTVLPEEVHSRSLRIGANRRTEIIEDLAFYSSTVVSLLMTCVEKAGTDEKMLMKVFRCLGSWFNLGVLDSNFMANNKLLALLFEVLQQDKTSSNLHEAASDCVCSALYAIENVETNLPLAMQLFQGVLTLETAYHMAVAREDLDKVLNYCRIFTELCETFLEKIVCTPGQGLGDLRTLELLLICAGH

The target of assay [1] is cytoplasmic domain of HIV-1 Env TM Gp41, bait TM_v1 (HIV-1 isolate YU2) (UniProt P35961). Briefly: yeast two-hybrid screen, cytoplasmic domain of TM Gp41 as bait.
Assay [2] addresses HIV-1 protease, bait PR_v1 (HIV-1 isolate YU2) (UniProt P35963). Briefly: yeast two-hybrid screen, bait PR_v1 (pB27), CEMC7 oligo dT primed cDNA prey library; table of bait-prey interactions.
The target is the same in assay [3]. As to the kind of experiment: yeast two-hybrid screen, bait PR_v1 (pB27), CEMC7 random primed cDNA prey library; table of bait-prey interactions.
Assay [4] shares this target. As to the kind of experiment: yeast two-hybrid screen, HIV-1 protease bait.
The target of assay [5] is HIV-1 Integrase (IN), bait IN (HIV-1 isolate YU2) (UniProt P35963). Briefly: yeast two-hybrid screen, bait IN (pB27), CEMC7 oligo dT primed cDNA prey library; table of bait-prey interactions.
For assay [6] the target is unchanged. As to the kind of experiment: yeast two-hybrid screen, IN bait, random primed and oligo dT cDNA prey libraries.
For assay [7], the target named is HIV-1 IN fragments from the library of HIV genome DNA random fragments (HIV-1 isolate YU2) (UniProt P35963). As to the kind of experiment: secondary yeast two-hybrid screen, Transportin-SR aa61-aa333 bait against the library of HIV genome DNA random fragments.
For assay [8] the target is unchanged. Briefly: secondary yeast two-hybrid screen, VBP1 full length bait against the library of HIV genome DNA random fragments.

These are yes or no findings as the source states them, for the method shown. Some entries that bind do so weakly or less than the wild type.

For “ATF6 beta, prey fragments (from UniProt Q99941 2-703)”, the binding entry in assay [1] is recorded as “binds”.
As to “Human AIM1 (prey030612), Absent in Melanoma, prey fragments (from UniProt Q9Y4K1 1-2131)”, the binding entry in assay [2], in assay [3] and in assay [4] was “binds” throughout.
On to “Human MCM7 (prey007151), prey fragments (from UniProt P33993 2-719)”, for which the binding entry in assay [5] and in assay [6] was “binds” each time.
In the case of “Transportin-SR (fragment aa61-aa333), bait of the secondary screen (from UniProt Q9Y5L0 61-333)”, in assay [7], the binding result is listed as “binds”.
“VBP1 full length (bait of the secondary screen) (from UniProt P61758 2-197)”: the binding result in assay [8] was “binds”.
